Literature values, collected in paper PMC7308271, “Discovery of a new class of orthosteric antagonists with nanomolar potency at extrasynaptic GABAA receptors” (Scientific Reports, 2020).

Target: [^3H]muscimol binding (GABAΑ receptors) in rat brain cortical homogenate
Settings: reference, ref Krall et al.[48]; cited from earlier work

SMILES: NCCCC(=O)O [GABA]
- Ki: 49 nM
